Source: PubChem BioAssay AID256 (DTP/NCI, 2004)
The list shows only some results of the screen, not a fair sample: it is rich in T/C values a quarter to a half above the control, in often repeated tests (any T/C) and in doses without a T/C. Further doses and runs are listed elsewhere. T/C gives the treated animals as a percentage of the vehicle group. Some doses have a count of surviving animals in place of a T/C: the source files T/C as zero there, which appears to mark a toxic dose or a test without result, not a measured value. Some doses without a T/C left all or most animals alive at the check, yet need not have been tolerated: survival well below the control is almost never listed, so the zero probably covers shortened survival too. Counts of survivors are from the toxicity check (mostly the fifth day) where no day follows; animals may have died later. Schedules are NCI's codes, taken here to give the interval after Q, in days (D) or hours (H), and the number of doses after X. For survival time, this PubChem deposit counts one and a half times the control or more as active, and values a quarter to a half above the control carry no call in these data; other NCI protocols may use other cut-offs. Some entries hold several experiments; the results are listed from low to high.

Tested on: CD2F1 mice, L1210 leukemia ip, survival T/C
Experiment: NCI In Vivo Anticancer Drug Screen. Data for tumor model L1210 Leukemia (intraperitoneal) in CD2F1 (CDF1) mice
Settings: higher T/C = longer survival
In short: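 Ratio T/C, where T is the treated-group value and C the vehicle-dosed control value, from mice implanted with a transplantable tumor.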

[1] = T/C endpoint: mean survival time, dose: 200.0 mg/kg/injection, schedule: Q01DX001 (ip), vehicle: saline with Tween-80
[2] = T/C endpoint: mean survival time, dose: 400.0 mg/kg/injection, schedule: Q01DX001 (ip), vehicle: saline with Tween-80
[3] = T/C endpoint: mean survival time, dose: 400.0 mg/kg/injection, schedule: Q01DX009 (ip), vehicle: saline with Tween-80
[4] = T/C endpoint: mean survival time, dose: 400.0 mg/kg/injection, schedule: Q04DX003 (ip), vehicle: saline with Tween-80
[5] = T/C endpoint: mean survival time, dose: 12.5 mg/kg/injection, schedule: Q01DX009 (ip), vehicle: saline with Tween-80
[6] = T/C endpoint: mean survival time, dose: 100.0 mg/kg/injection, schedule: Q01DX009 (ip), vehicle: saline with Tween-80
[7] = T/C endpoint: mean survival time, dose: 100.0 mg/kg/injection, schedule: Q04DX003 (ip), vehicle: saline with Tween-80
[8] = T/C endpoint: mean survival time, dose: 200.0 mg/kg/injection, schedule: Q04DX003 (ip), vehicle: saline with Tween-80
[9] = T/C endpoint: mean survival time, dose: 200.0 mg/kg/injection, schedule: Q01DX009 (ip), vehicle: saline with Tween-80
[10] = T/C endpoint: mean survival time, dose: 75.0 mg/kg/injection, schedule: Q01DX001 (ip), vehicle: saline
[11] = T/C endpoint: mean survival time, dose: 150.0 mg/kg/injection, schedule: Q01DX001 (ip), vehicle: saline
[12] = T/C endpoint: mean survival time, dose: 300.0 mg/kg/injection, schedule: Q01DX001 (ip), vehicle: saline
[13] = T/C endpoint: mean survival time, dose: 100.0 mg/kg/injection, schedule: Q01DX001 (ip), vehicle: saline
[14] = T/C endpoint: mean survival time, dose: 200.0 mg/kg/injection, schedule: Q01DX001 (ip), vehicle: saline
[15] = T/C endpoint: mean survival time, dose: 400.0 mg/kg/injection, schedule: Q01DX001 (ip), vehicle: saline
[16] = T/C endpoint: mean survival time, dose: 50.0 mg/kg/injection, schedule: Q01DX001 (ip), vehicle: saline with Tween-80

In the case of `COC(=O)C1(C)CCCC2(C)C3CCC(C)(CCOC(C)=O)CC3C(OC(C)=O)CC12` (stereo not drawn), the survivor count [1] is reported as 6 of 6 and the survivor count [2] is reported as 6 of 6.

`Cc1ccc(C2=NNc3n[nH]c(=S)n3N2)cc1` was tested, and the survivor count [3] was 3 of 6.

For `CC(C)(CN=Cc1ccccc1[O-])N=Cc1ccccc1[O-].[O]=[V]`, the survivor count [4] was 0 of 6.

`NC(=S)/N=C\C(CC(O)C(O)C(O)CO)=N\NC(N)=S` (stereo not drawn) was tested, and the survivor count [5] was 3 of 3.

With `CCOC(=O)C1C(=O)N(C)C(=O)N1C` (stereo not drawn) the survivor count (T/C endpoint: mean survival time, dose: 18.8 mg/kg/injection, schedule: Q01DX009 (ip), vehicle: water) was 6 of 6.

In the case of `CSc1ccc(O)c(C)c1`, the survivor count [6] is reported as 3 of 6 and the survivor count [3] is reported as 2 of 6.

For `O=Cc1ccc([N+](=O)[O-])s1`, the survivor count [6] was 1 of 6.

In the case of `C[n+]1c(/C=C\c2ccc(Cl)cc2)ccc2ccccc21`, the survivor count [5] is reported as 3 of 6, the survivor count (T/C endpoint: mean survival time, dose: 25.0 mg/kg/injection, schedule: Q04DX003 (ip), vehicle: saline with Tween-80) is reported as 4 of 6 and the survivor count (T/C endpoint: mean survival time, dose: 50.0 mg/kg/injection, schedule: Q04DX003 (ip), vehicle: saline with Tween-80) is reported as 4 of 6. For the same compound, the survivor count [7] was 2 of 6 and the survivor count [8] was 0 of 6.

In the case of `CC(O)C(NC(=O)c1cnc(OCc2ccccc2)nc1N)C(=O)O` (stereo not drawn), the survivor count [6] is reported as 1 of 6, the survivor count [9] is reported as 0 of 6 and the survivor count [3] is reported as 0 of 6.

With `COC(=O)c1cc([N+](=O)[O-])cc([N+](=O)[O-])c1Sc1ncnc2nc[nH]c12` the survivor count (T/C endpoint: mean survival time, dose: 20.0 mg/kg/injection, schedule: Q01DX005 (ip), vehicle: other) was 1 of 3 and the survivor count (T/C endpoint: mean survival time, dose: 80.0 mg/kg/injection, schedule: Q01DX005 (ip), vehicle: other) was 0 of 3.

With `O=C1c2ccccc2C[CH]1[Hg][Cl]` (stereo not drawn) the survivor count [10] was 0 of 6, the survivor count [11] was 0 of 6 and the survivor count [12] was 0 of 6.

`O=c1[nH]c(/C=C/C=C/c2ccccc2)c([N+](=O)[O-])c(=O)[nH]1` was tested, and the T/C (T/C endpoint: mean survival time, dose: 400.0 mg/kg/injection, schedule: Q04DX002 (ip), vehicle: Klucel (hydroxypropylcellulose) (HPC)) was 128 % of control.

For `CCOc1ccc(OCC)c(NC(=O)Nc2cccc(Cl)c2)c1`, the survivor count (T/C endpoint: mean survival time, dose: 200.0 mg/kg/injection, schedule: Q04DX002 (ip), vehicle: saline with Tween-80) was 3 of 3 and the survivor count (T/C endpoint: mean survival time, dose: 400.0 mg/kg/injection, schedule: Q04DX002 (ip), vehicle: saline with Tween-80) was 3 of 3.

`NNC(=O)COc1ccc(Cl)cc1Cl` was tested, and the survivor count [9] was 3 of 6 and the survivor count [3] was 0 of 6.

With `CN(C)CC#N` the survivor count (T/C endpoint: mean survival time, dose: 100.0 mg/kg/injection, schedule: Q04DX003 (ip), vehicle: saline) was 0 of 6, the survivor count (T/C endpoint: mean survival time, dose: 200.0 mg/kg/injection, schedule: Q04DX003 (ip), vehicle: saline) was 0 of 6 and the survivor count (T/C endpoint: mean survival time, dose: 400.0 mg/kg/injection, schedule: Q04DX003 (ip), vehicle: saline) was 0 of 6.

In the case of `c1ccc2c(c1)nnn1c3cnccc3nc21`, the survivor count (T/C endpoint: mean survival time, dose: 25.0 mg/kg/injection, schedule: Q01DX009 (ip), vehicle: saline with Tween-80) is reported as 4 of 6, the survivor count (T/C endpoint: mean survival time, dose: 40.0 mg/kg/injection, schedule: Q01DX001 (ip), vehicle: saline) is reported as 0 of 6 and the survivor count (T/C endpoint: mean survival time, dose: 50.0 mg/kg/injection, schedule: Q01DX009 (ip), vehicle: saline with Tween-80) is reported as 0 of 6. For the same compound, the survivor count [10] was 0 of 6, the survivor count (T/C endpoint: mean survival time, dose: 80.0 mg/kg/injection, schedule: Q01DX001 (ip), vehicle: saline) was 0 of 6 and the survivor count [11] was 0 of 6. For the same compound, the survivor count [12] was 0 of 6.

With `CO[C@@]12[C@@H]3N[C@@H]3CN1C1=C(C(=O)C(NCC3CCCO3)=C(C)C1=O)[C@@H]2COC(N)=O` (stereo partly drawn) the T/C (T/C endpoint: mean survival time, dose: 6.0 mg/kg/injection, schedule: Q01DX001 (ip), vehicle: distilled water + Tween-80) was 125 % of control, the T/C (T/C endpoint: mean survival time, dose: 12.0 mg/kg/injection, schedule: Q01DX001 (ip), vehicle: distilled water + Tween-80) was 129 and 133 % of control and the T/C (T/C endpoint: mean survival time, dose: 24.0 mg/kg/injection, schedule: Q01DX001 (ip), vehicle: distilled water + Tween-80) was 139 and 145 % of control. For the same compound, the T/C (T/C endpoint: mean survival time, dose: 36.0 mg/kg/injection, schedule: Q01DX001 (ip), vehicle: distilled water + Tween-80) was 127 % of control.

In the case of `CC(=O)Oc1cc(OC(C)=O)c2c(OC(C)=O)c3c(OC(C)=O)cc(C)cc3cc2c1`, the survivor count [13] is reported as 0 of 6, the survivor count [14] is reported as 0 of 6 and the survivor count [15] is reported as 0 of 6.

In the case of `COc1cccc(NC2=NCCO2)c1`, the survivor count [4] is reported as 2 of 6.

With `CCOC(=O)C(CC1OCCO1)C1=NC(C)(C)CC(C)O1` (stereo not drawn) the survivor count (T/C endpoint: mean survival time, dose: 400.0 mg/kg/injection, schedule: Q01DX001 (ip), vehicle: acetone) was 2 of 6.

`N#CN=C(N)NC(=O)c1ccccc1` was tested, and the survivor count [4] was 1 of 3.

In the case of `NCCS/C=C/C(=O)Oc1ccc(Br)cc1`, the survivor count [4] is reported as 1 of 6.

`O=C1OC2CC3CCC2C13` (stereo not drawn) was tested, and the survivor count [13] was 0 of 6, the survivor count [14] was 0 of 6 and the survivor count [15] was 0 of 6.

`COC1C(O)C(C)OC(OC2CCC3(C)C(CCC4C3C(O)CC3(C)C(C5=CC(=O)OC5)CCC43O)C2)C1O` (stereo not drawn) was tested, and the survivor count [10] was 1 of 6, the survivor count [11] was 0 of 6 and the survivor count [12] was 0 of 6.

In the case of `CC(C)=CCOC1=CC(=O)C(=O)c2ccccc21`, the survivor count [1] is reported as 0 of 6 and the survivor count [2] is reported as 0 of 6.

`O=C1CC23CCCN2CCc2cc4c(cc2C3=C1O)OCO4` (stereo not drawn) was tested, and the survivor count (T/C endpoint: mean survival time, dose: 25.0 mg/kg/injection, schedule: Q01DX009 (ip), vehicle: Klucel (hydroxypropylcellulose) (HPC)) was 4 of 5, the survivor count (T/C endpoint: mean survival time, dose: 50.0 mg/kg/injection, schedule: Q01DX009 (ip), vehicle: Klucel (hydroxypropylcellulose) (HPC)) was 2 of 5 and the survivor count (T/C endpoint: mean survival time, dose: 100.0 mg/kg/injection, schedule: Q01DX009 (ip), vehicle: Klucel (hydroxypropylcellulose) (HPC)) was 0 of 5. For the same compound, the survivor count (T/C endpoint: mean survival time, dose: 200.0 mg/kg/injection, schedule: Q01DX009 (ip), vehicle: Klucel (hydroxypropylcellulose) (HPC)) was 0 of 5 and the survivor count (T/C endpoint: mean survival time, dose: 400.0 mg/kg/injection, schedule: Q01DX009 (ip), vehicle: Klucel (hydroxypropylcellulose) (HPC)) was 0 of 5.

In the case of `[Cl][Pd][Cl]`, the survivor count (T/C endpoint: mean survival time, dose: 25.0 mg/kg/injection, schedule: Q01DX009 (ip), vehicle: saline sonified) is reported as 2 of 6, the survivor count (T/C endpoint: mean survival time, dose: 50.0 mg/kg/injection, schedule: Q01DX009 (ip), vehicle: saline sonified) is reported as 2 of 6 and the survivor count [7] is reported as 6 of 6. For the same compound, the survivor count [8] was 4 of 6 and the survivor count [4] was 2 of 6.

For `O=[As](O)(CC(O)c1ccccc1)c1ccccc1` (stereo not drawn), the survivor count (T/C endpoint: mean survival time, dose: 25.0 mg/kg/injection, schedule: Q01DX001 (ip), vehicle: saline with Tween-80) was 3 of 6, the survivor count [16] was 0 of 6 and the survivor count (T/C endpoint: mean survival time, dose: 100.0 mg/kg/injection, schedule: Q01DX001 (ip), vehicle: saline with Tween-80) was 0 of 6.

For `O=C1C(Cl)=C(NCc2ccccc2Cl)C(=O)c2ccccc21`, the survivor count [16] was 0 of 3.

In the case of `C[SeH]C.C[SeH]C.O.O=S(=O)(O)O.[Pt]`, the survivor count (T/C endpoint: mean survival time, dose: 200.0 mg/kg/injection, schedule: Q04DX003 (ip), vehicle: other) is reported as 0 of 6.

For `C=CCOC(=O)Oc1ccccc1Cl`, the survivor count [9] was 6 of 6, the survivor count [3] was 0 of 6 and the survivor count [4] was 0 of 6.

For `OC(c1ccccc1)(c1ccccc1)c1ccccc1C(O)(c1ccccc1)c1ccccc1`, the survivor count (T/C endpoint: mean survival time, dose: 400.0 mg/kg/injection, schedule: Q01DX001 (ip), vehicle: Klucel (hydroxypropylcellulose) (HPC)) was 3 of 3.

`Cc1c(Cl)c(C)c(Cl)c(O)c1Cl` (tested in a mixture with another compound) was tested, and the survivor count (T/C endpoint: mean survival time, dose: 200.0 mg/kg/injection, schedule: Q01DX005 (ip), vehicle: saline with Tween-80) was 0 of 3.

`O=C1N(CC2CO2)CCN1CC1CO1` (stereo not drawn) was tested, and the T/C (T/C endpoint: median survival time, dose: 25.0 mg/kg/injection, schedule: Q01DX009 (ip), vehicle: saline) was 145 % of control.

With `NN1CCCCC1` the survivor count (T/C endpoint: mean survival time, dose: 400.0 mg/kg/injection, schedule: Q04DX002 (ip), vehicle: saline) was 2 of 3.
